# Literature values in article PMC7947795, “Rapamycin-Loaded Lipid Nanocapsules Induce Selective Inhibition of the mTORC1-Signaling Pathway in Glioblastoma Cells” (Frontiers in Bioengineering and Biotechnology, 2021).
# Parameters: method as in Simamora et al., 2001
# Details: ref Simamora et al., 2001; cited from earlier work
smiles,measurement,value
CO[C@H]1C[C@@H]2CC[C@@H](C)[C@@](O)(O2)C(=O)C(=O)N2CCCC[C@H]2C(=O)O[C@H]([C@H](C)C[C@@H]2CC[C@@H](O)[C@H](OC)C2)CC(=O)[C@H](C)/C=C(\C)[C@@H](O)[C@@H](OC)C(=O)[C@H](C)C[C@H](C)/C=C/C=C/C=C/1C [Rapamycin],solubility in water,ca. 2.6 μg/mL
